Data reported in patent US20250115874A1, “Compositions And Methods For Making And Using Atherosclerotic Nanomatrix Vascular Sheets” (UAB RESEARCH FOUNDATION, priority 2023, published 2025).
At least one compound was matched to its structure with a doubt left.

Test system: cytokine secretion of VSAs
Experiment: VSA cytokine assay (ELISA of supernatant)
Type: cell-based, human
Settings: sirolimus 10 nM, day 10
Procedure: Experimental: (1) Fabrication of VSA high throughput culture systems: large-scale VSA high throughput culture systems were achieved by fabricating individual VSAs in each well of the 48-well tissue culture plate, following the same method described in Example 4 (FIG. 7A, step 1). (2) Divide the VSAs into two groups. (3) Treatment of VSAs in one group with rosuvastatin (10 uM) or sirolimus (10 nM) by dilution of the stock solution into the culture medium 7 on day 0 (FIG. 7B, step 2). (4) The VSAs, treated or untreated, were culturing in culture medium 7 for 10 days. A fresh culture medium 7 was added to the co-culture system on day 3 and day 7, respectively. (5) ELISA: On day 10, the supernatant from VSAs was collected for ELISA to measure the significant inflammatory cytokine secretion.
Experimental: (1) Fabrication of VSA high throughput culture systems: the large-scale VSA high throughput culture system was achieved by fabricating individual VSAs in each well of the 48-well tissue culture plate, following the same method described in Example 4 (FIG. 7A, step 1). (2) Divide the VSAs into two groups. (3) Treatment of VSAs in one group with curcumin (200 uM) or colchicine (100 nM) by dilution of the stock solution into the culture medium 7 on day 0 (FIG. 7B, step 2). (4) The VSAs, treated or untreated, were cultured using culture medium 7 for 10 days. […]

CO[C@H]1C[C@@H]2CC[C@@H](C)[C@@](O)(O2)C(=O)C(=O)N2CCCC[C@H]2C(=O)O[C@H]([C@H](C)C[C@@H]2CC[C@@H](O)[C@H](OC)C2)CC(=O)[C@H](C)/C=C(\C)[C@@H](O)[C@@H](OC)C(=O)[C@H](C)C[C@H](C)/C=C/C=C/C=C/1C [sirolimus] was tested, and the IL-1α secretion was “reduced” and the IL-8 secretion was “reduced”.
